{"source": "PubChem BioAssay AID1224830, NIAID | 2016", "purpose": "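Genes whose knock-down alters the TNF-alpha reporter response to LPS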 (primary screen)", "system": "human THP-1 monocytic leukaemia cells, TNF dual-luciferase reporter clone, PMA-differentiated to macrophage-like cells", "reagent": "siRNA pool against human genes, 50 nM", "time to read-out": "LPS for 4 h, given about 3 days after siRNA transfection", "treatment": "bacterial LPS (TLR4 ligand), 10 ng/ml", "detection": "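TNF firefly reporter luminescence divided by renilla, normalised to the plate median, then turned into a robust z-score for each replicate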", "scale": "TNF reporter robust z-score: higher = stronger TNF reporter response to LPS", "rule for the call": "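Each well counts as active if its z-score is over 2.8 or under -1.5; controls are left without a call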", "note": "Here is an unselected part of about 18,000 deposited reagents. Of all reagents, about 2,900 (16%) were called active. 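Calls are made per well; low scores hint the gene aids the LPS response, high scores that it dampens it.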 A number with no mark means an inactive call. Repeated entries: four replicate wells of each siRNA pool."}
{"target gene": "CCDC149 (GeneID 91050)", "TNF reporter robust z-score": 2.5}
{"target gene": "CCDC149 (GeneID 91050)", "TNF reporter robust z-score": 1.71}
{"target gene": "CCDC149 (GeneID 91050)", "TNF reporter robust z-score": 1.23}
{"target gene": "CCDC149 (GeneID 91050)", "TNF reporter robust z-score": 1.04}
{"target gene": "FOXI2 (GeneID 399823)", "TNF reporter robust z-score": 0.36}
{"target gene": "FOXI2 (GeneID 399823)", "TNF reporter robust z-score": 1.38}
{"target gene": "FOXI2 (GeneID 399823)", "TNF reporter robust z-score": 1.84}
{"target gene": "FOXI2 (GeneID 399823)", "TNF reporter robust z-score": 2.18}
{"target gene": "DCDC2 (GeneID 51473)", "TNF reporter robust z-score": -0.41}
{"target gene": "DCDC2 (GeneID 51473)", "TNF reporter robust z-score": 0.67}
{"target gene": "DCDC2 (GeneID 51473)", "TNF reporter robust z-score": 0.9}
{"target gene": "DCDC2 (GeneID 51473)", "TNF reporter robust z-score": 2.44}

Continued (3 carried over from the part before).
{"target gene": "DCDC2 (GeneID 51473)", "TNF reporter robust z-score": 0.67}
{"target gene": "DCDC2 (GeneID 51473)", "TNF reporter robust z-score": 0.9}
{"target gene": "DCDC2 (GeneID 51473)", "TNF reporter robust z-score": 2.44}
{"target gene": "SYNGAP1 (GeneID 8831)", "TNF reporter robust z-score": -0.75}
{"target gene": "SYNGAP1 (GeneID 8831)", "TNF reporter robust z-score": -0.49}
{"target gene": "SYNGAP1 (GeneID 8831)", "TNF reporter robust z-score": -0.86}
{"target gene": "SYNGAP1 (GeneID 8831)", "TNF reporter robust z-score": -0.94}
{"target gene": "COQ10A (GeneID 93058)", "TNF reporter robust z-score": -0.14}
{"target gene": "COQ10A (GeneID 93058)", "TNF reporter robust z-score": -0.42}
{"target gene": "COQ10A (GeneID 93058)", "TNF reporter robust z-score": 0.19}
{"target gene": "SCN1B (GeneID 6324)", "TNF reporter robust z-score": 2.24}
{"target gene": "SCN1B (GeneID 6324)", "TNF reporter robust z-score": "3.8 (active)"}
{"target gene": "SCN1B (GeneID 6324)", "TNF reporter robust z-score": 1.95}
{"target gene": "SCN1B (GeneID 6324)", "TNF reporter robust z-score": "3.86 (active)"}
{"target gene": "NDEL1 (GeneID 81565)", "TNF reporter robust z-score": "3.41 (active)"}
{"target gene": "NDEL1 (GeneID 81565)", "TNF reporter robust z-score": 1.16}
{"target gene": "NDEL1 (GeneID 81565)", "TNF reporter robust z-score": -0.26}
{"target gene": "NDEL1 (GeneID 81565)", "TNF reporter robust z-score": 0.27}
{"target gene": "LCE1C (GeneID 353133)", "TNF reporter robust z-score": -0.27}
{"target gene": "LCE1C (GeneID 353133)", "TNF reporter robust z-score": 1.37}
{"target gene": "LCE1C (GeneID 353133)", "TNF reporter robust z-score": 0.17}
{"target gene": "LCE1C (GeneID 353133)", "TNF reporter robust z-score": 1.64}
{"target gene": "DUSP11 (GeneID 8446)", "TNF reporter robust z-score": -1.02}
{"target gene": "DUSP11 (GeneID 8446)", "TNF reporter robust z-score": -0.81}
{"target gene": "DUSP11 (GeneID 8446)", "TNF reporter robust z-score": "-1.54 (active)"}
{"target gene": "DUSP11 (GeneID 8446)", "TNF reporter robust z-score": -0.9}
